Data taken from US20170321220A1 (INDIANA UNIVERSITY RESEARCH AND TECHNOLOGY, published 2017).
No constants are given. Whether binding was seen depends on the method and setting. Some binding calls cover weakened binding; strength is not graded here.

By UniProt entry, the sequences of proteins in these tests, tags left out. Residues count along the entry.
UniProt P26747, residues 2-430: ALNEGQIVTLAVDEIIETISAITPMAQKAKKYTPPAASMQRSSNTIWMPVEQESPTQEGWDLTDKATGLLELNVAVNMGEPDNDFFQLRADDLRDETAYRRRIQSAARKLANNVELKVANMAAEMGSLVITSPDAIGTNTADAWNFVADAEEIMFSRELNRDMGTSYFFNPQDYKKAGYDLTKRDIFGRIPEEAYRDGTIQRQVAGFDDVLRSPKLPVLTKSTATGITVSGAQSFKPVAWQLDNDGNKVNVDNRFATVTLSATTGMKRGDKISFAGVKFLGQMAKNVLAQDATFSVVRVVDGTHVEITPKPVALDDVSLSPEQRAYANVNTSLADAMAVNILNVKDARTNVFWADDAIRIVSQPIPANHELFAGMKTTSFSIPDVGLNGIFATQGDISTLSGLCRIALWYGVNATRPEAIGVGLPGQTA

Experiments:
[1] = molecular target: EX P22 VLP (expanded form of the bacteriophage P22 virus-like particle) (bacteriophage P22 (filing: P22 VLP from Salmonella typhimurium)) (UniProt P26747); assay: SEC-MALS-QELS, binding in solution
[2] = molecular target: EX P22 VLP (expanded form of the bacteriophage P22 virus-like particle) (bacteriophage P22 (filing: P22 VLP from Salmonella typhimurium)) (UniProt P26747); assay: SPR
[3] = molecular target: EX P22 VLP (expanded form of the bacteriophage P22 virus-like particle) (bacteriophage P22 (filing: P22 VLP from Salmonella typhimurium)) (UniProt P26747); assay: SEC-MALS, EX P22 incubated with excess DecΔ11

Measured: binding

B1: DecΔ11 (Dec lacking the first 11 N-terminal residues) (other)
chain: MGSSHHHHHHSQDPLYKDADGVYVSALPIKAIKYANDGSANAEFDGPYADQYMSAQTVAVFKPEVGGYLFRSQYGELLYMSKTAFEANYTSASGSVANAETADKLSTARTITLTGAVTGSASFDGSANVTIETTSGS
binds: [1] | [2] | [3]
